{"sequences": {"note": "Chains of the proteins cited; added tags and fusions are not shown. Lines headed by an entry give the natural chain unless they say otherwise; changes in a name come on top.", "UniProt P10275": "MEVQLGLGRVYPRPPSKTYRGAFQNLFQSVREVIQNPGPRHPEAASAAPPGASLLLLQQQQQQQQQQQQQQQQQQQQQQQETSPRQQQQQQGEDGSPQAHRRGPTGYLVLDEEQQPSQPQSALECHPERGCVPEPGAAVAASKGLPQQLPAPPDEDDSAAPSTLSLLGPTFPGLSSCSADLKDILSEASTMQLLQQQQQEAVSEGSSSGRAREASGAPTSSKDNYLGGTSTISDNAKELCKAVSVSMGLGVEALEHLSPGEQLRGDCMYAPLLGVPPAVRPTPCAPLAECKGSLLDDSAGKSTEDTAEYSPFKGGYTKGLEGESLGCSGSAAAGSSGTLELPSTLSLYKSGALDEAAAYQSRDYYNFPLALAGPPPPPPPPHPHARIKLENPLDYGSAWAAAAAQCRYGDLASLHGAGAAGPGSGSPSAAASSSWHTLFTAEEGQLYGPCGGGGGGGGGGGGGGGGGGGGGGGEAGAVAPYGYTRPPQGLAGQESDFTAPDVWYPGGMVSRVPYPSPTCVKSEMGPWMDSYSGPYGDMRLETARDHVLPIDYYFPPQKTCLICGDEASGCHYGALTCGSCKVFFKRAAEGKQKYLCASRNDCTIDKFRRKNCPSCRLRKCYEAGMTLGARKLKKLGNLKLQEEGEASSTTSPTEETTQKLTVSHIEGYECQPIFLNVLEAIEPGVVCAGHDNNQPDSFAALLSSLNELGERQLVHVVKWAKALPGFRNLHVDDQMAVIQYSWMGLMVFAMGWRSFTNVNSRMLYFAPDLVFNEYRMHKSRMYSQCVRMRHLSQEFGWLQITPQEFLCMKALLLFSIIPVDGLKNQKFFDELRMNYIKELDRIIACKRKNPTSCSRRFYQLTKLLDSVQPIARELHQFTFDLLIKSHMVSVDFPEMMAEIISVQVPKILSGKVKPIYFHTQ", "UniProt O14746": "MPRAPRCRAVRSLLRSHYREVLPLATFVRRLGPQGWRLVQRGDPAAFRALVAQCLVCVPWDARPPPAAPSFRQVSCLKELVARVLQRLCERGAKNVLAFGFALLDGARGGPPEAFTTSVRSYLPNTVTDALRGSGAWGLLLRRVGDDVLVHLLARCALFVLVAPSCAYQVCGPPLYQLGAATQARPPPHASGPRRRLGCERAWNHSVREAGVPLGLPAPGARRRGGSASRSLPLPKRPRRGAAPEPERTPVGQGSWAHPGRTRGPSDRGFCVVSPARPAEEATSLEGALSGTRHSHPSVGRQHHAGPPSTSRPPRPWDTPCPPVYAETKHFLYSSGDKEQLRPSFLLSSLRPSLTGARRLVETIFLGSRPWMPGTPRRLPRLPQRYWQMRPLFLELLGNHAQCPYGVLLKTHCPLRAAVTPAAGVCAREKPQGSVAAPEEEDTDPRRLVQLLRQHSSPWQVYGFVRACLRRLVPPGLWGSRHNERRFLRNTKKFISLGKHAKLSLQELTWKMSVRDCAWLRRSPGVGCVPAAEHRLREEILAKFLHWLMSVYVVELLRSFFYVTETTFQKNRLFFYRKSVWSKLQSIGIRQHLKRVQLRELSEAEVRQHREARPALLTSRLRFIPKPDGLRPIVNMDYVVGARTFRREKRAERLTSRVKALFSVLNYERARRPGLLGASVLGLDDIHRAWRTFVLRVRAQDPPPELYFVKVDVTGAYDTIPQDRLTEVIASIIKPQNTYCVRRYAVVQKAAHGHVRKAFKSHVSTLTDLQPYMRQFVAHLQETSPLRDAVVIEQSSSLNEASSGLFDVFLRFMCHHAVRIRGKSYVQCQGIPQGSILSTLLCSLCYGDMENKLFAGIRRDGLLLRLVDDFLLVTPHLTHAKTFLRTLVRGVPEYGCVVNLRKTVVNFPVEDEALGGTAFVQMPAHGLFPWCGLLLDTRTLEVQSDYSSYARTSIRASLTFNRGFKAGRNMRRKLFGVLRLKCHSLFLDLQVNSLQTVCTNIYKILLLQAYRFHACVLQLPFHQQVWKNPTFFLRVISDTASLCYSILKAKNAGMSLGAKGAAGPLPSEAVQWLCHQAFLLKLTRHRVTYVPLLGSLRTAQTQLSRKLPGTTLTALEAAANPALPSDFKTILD"}, "source": "paper PMC7906190", "key": {"[1]": {"molecular_target": "androgen receptor (human (endogenous in RWPE-1 and WPMY-1)) (UniProt P10275)", "assay": "flow cytometry on cells; fixed/permeabilized RWPE-1 and WPMY-1 cells, 1 h at room temperature with 1 ug anti-AR antibody or isotype control, then FITC-conjugated GV1001 for 30 min on ice; MFI of FITC; only the binder purified"}, "[2]": {"molecular_target": "androgen receptor (human (endogenous in RWPE-1 and WPMY-1)) (UniProt P10275)", "assay": "co-IP; RWPE-1 and WPMY-1 cells treated with GV-FITC (100 uM) for 1 h at 37 C; lysates incubated with anti-AR antibody on Dynabeads Protein G; GV-FITC in the eluate read in a fluorometer (ex 488 nm, em 525 nm); only the binder purified"}}, "note": "These are yes or no findings as the source states them, for the method shown. For some assays here: Binding seen in cells or lysates may run through a third protein. Some entries that bind do so weakly or less than the wild type."}
{"binder": "EARPALLTSRLRFIPK (peptide, UniProt O14746 611-626, FITC-conjugated (position not given))", "note": "[FITC-conjugated GV1001]", "values": [{"measurement": "binding", "setting": "[1]", "value": "binds"}, {"measurement": "binding", "setting": "[2]", "value": "binds"}]}
